Test [1] concerns the target SMAD3 (endogenous) (human (endogenous in MDA-MB-231, MCF-7, HEK293T)) (UniProt P84022). Description: co-IP; endogenous proteins; WCEs (NP-40 buffer) of MDA-MB-231, MCF-7 or HEK293T cells, IP with anti-SMAD3 antibody on magnetic beads, immunoblot; cells serum starved and treated with TGFB1 (5 ng/mL), silenced for EZH2 or transfected with EZH2 WT, H689A or Y641H in some panels.

The chains behind the UniProt entries cited, without tags or fusion partners.
UniProt P84022: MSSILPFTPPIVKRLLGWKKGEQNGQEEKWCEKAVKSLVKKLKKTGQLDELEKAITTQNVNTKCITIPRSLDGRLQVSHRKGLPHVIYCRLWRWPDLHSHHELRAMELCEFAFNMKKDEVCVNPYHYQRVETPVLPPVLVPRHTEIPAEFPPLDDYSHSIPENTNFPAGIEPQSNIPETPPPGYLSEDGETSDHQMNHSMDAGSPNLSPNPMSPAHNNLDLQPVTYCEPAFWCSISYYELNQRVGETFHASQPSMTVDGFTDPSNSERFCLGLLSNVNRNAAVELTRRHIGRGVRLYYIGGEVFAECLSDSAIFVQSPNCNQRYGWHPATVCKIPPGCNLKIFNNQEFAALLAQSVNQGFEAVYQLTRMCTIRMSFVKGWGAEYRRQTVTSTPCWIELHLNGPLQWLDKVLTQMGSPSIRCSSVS

Another test has as its target HA-SMAD3 (WT) (UniProt P84022). Description: co-IP; HEK293T cells transfected with WT HA-SMAD3 or HA-SMAD3 K53/333R, treated with TGFB1 (5 ng/mL); WCEs, IP with anti-HA antibody, immunoblot.

No constants are given. Whether binding was seen depends on the method and setting. Binding seen in cells or lysates may run through a third protein. Some entries that bind do so weakly or less than the wild type.

B1: SMAD anchor for receptor activation (SARA), endogenous (protein, UniProt O95405 1-1425)
chain: MENYFQAEAYNLDKVLDEFEQNEDETVSSTLLDTKWNKILDPPSHRLSFNPTLASVNESAVSNESQPQLKVFSLAHSAPLTTEEEDHCANGQDCNLNPEIATMWIDENAVAEDQLIKRNYSWDDQCSAVEVGEKKCGNLACLPDEKNVLVVAVMHNCDKRTLQNDLQDCNNYNSQSLMDAFSCSLDNENRQTDQFSFSINESTEKDMNSEKQMDPLNRPKTEGRSVNHLCPTSSDSLASVCSPSQLKDDGSIGRDPSMSAITSLTVDSVISSQGTDGCPAVKKQENYIPDEDLTGKISSPRTDLGSPNSFSHMSEGILMKKEPAEESTTEESLRSGLPLLLKPDMPNGSGRNNDCERCSDCLVPNEVRADENEGYEHEETLGTTEFLNMTEHFSESQDMTNWKLTKLNEMNDSQVNEEKEKFLQISQPEDTNGDSGGQCVGLADAGLDLKGTCISESEECDFSTVIDTPAANYLSNGCDSYGMQDPGVSFVPKTLPSKEDSVTEEKEIEESKSECYSNIYEQRGNEATEGSGLLLNSTGDLMKKNYLHNFCSQVPSVLGQSSPKVVASLPSISVPFGGARPKQPSNLKLQIPKPLSDHLQNDFPANSGNNTKNKNDILGKAKLGENSATNVCSPSLGNISNVDTNGEHLESYEAEISTRPCLALAPDSPDNDLRAGQFGISARKPFTTLGEVAPVWVPDSQAPNCMKCEARFTFTKRRHHCRACGKVFCASCCSLKCKLLYMDRKEARVCVICHSVLMNAQAWENMMSASSQSPNPNNPAEYCSTIPPLQQAQASGALSSPPPTVMVPVGVLKHPGAEVAQPREQRRVWFADGILPNGEVADAAKLTMNGTSSAGTLAVSHDPVKPVTTSPLPAETDICLFSGSITQVGSPVGSAMNLIPEDGLPPILISTGVKGDYAVEEKPSQISVMQQLEDGGPDPLVFVLNANLLSMVKIVNYVNRKCWCFTTKGMHAVGQSEIVILLQCLPDEKCLPKDIFNHFVQLYRDALAGNVVSNLGHSFFSQSFLGSKEHGGFLYVTSTYQSLQDLVLPTPPYLFGILIQKWETPWAKVFPIRLMLRLGAEYRLYPCPLFSVRFRKPLFGETGHTIMNLLADFRNYQYTLPVVQGLVVDMEVRKTSIKIPSNRYNEMMKAMNKSNEHVLAGGACFNEKADSHLVCVQNDDGNYQTQAISIHNQPRKVTGASFFVFSGALKSSSGYLAKSSIVEDGVMVQITAENMDSLRQALREMKDFTITCGKADAEEPQEHIHIQWVDDDKNVSKGVVSPIDGKSMETITNVKIFHGSEYKANGKVIRWTEVFFLENDDQHNCLSDPADHSRLTEHVAKAFCLALCPHLKLLKEDGMTKLGLRVTLDSDQVGYQAGSNGQPLPSQYMNDLDSALVPVIHGGACQLSEGPVVMELIFYILENIV
For B1, the binding result (in test [1]; in the test with HA-SMAD3 (WT)) was “binds” each time.

The record behind these values is PMC8884901.
